Experimental data: PubChem BioAssay AID602196 (INSERM, 2012)
The whole screen tested about 23,000 reagents; this is a random part of them. 455 of them (2%) count as active. 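Active includes both protection and sensitisation; some change values fall well beyond the stated -50 to +50 range.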 Unmarked entries are inactive. Reagents against one gene are numbered here. Not given: the amount of reagent.

- Aim: 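Knock-downs that protect lung cancer cells from cisplatin or sensitise them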
- System: human A549 lung cancer cells
- Reagent: siRNA pair against human genes
- Duration: 48 h transfection before cisplatin; time from cisplatin to read-out not stated
- Treatment: cisplatin at a dose killing half of control-siRNA cells; exact dose and duration not given
- Measured: 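Cisplatin cell death as a shift from the 50% death seen with control siRNA; siRNAs toxic or growth-blocking alone scored 0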
- Direction: two-siRNA summed score (-2 to +2): higher = both siRNAs protect from cisplatin killing; -2 means both sensitise; mean protection from cisplatin (shift in death) and protection from cisplatin (shift in death), siRNA C and protection from cisplatin (shift in death), siRNA D: higher = protection from cisplatin killing
- Hit rule: 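siRNAs harmful alone (LDH or WST-1) get 0; others get +1 for less and -1 for more cisplatin killing; genes are active when the two siRNAs give the same sign, summing to ±2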
- Calls: active = both siRNAs shift cisplatin killing the same way; inactive = no consistent shift, or siRNA harmful alone

target gene	reagent	two-siRNA summed score (-2 to +2)	mean protection from cisplatin (shift in death) (%)	protection from cisplatin (shift in death), siRNA C (%)	protection from cisplatin (shift in death), siRNA D (%)
ADPRS	1	0	-2.8	-12.2	6.5
COL18A1	1	0	2.4	-1.3	6.1
PCDHB8	1	-1	-7.6	10.1	-25.2
LOC391613	1	0	3.8	8.2	-0.6
MAD1L1	1	0	-17.2	-6.2	-28.3
LOC442143	1	0	0.3	5.4	-4.8
PDCD4	1	-1	-11.7	-28.5	5.1
LOC402162	1	2 (active)	19.7	12.7	26.7
RSPH9	1	2 (active)	18.4	12.3	24.4
MYO3A	1	0	3.1	6.9	-0.6
SSBP3	1	0	12.6	5.7	19.4
LOC440940	1	0	15	10.2	19.8
METTL5	1	0	-11.6	5.1	-28.3
KCNC1	1	-1	2	-16.9	20.8
INO80	1	0	5.8	4.9	6.7
GCLM	1	-1	-17.8	-18.4	-17.2
SLC5A7	1	0	4.2	8	0.3
TMEM62	1	0	-7.8	-1.7	-13.9
ZNF347	1	0	10.2	10	10.4

Reagents listed above with an active call, once more:
target gene	reagent	two-siRNA summed score (-2 to +2)	mean protection from cisplatin (shift in death) (%)	protection from cisplatin (shift in death), siRNA C (%)	protection from cisplatin (shift in death), siRNA D (%)
LOC402162	1	2 (active)	19.7	12.7	26.7
RSPH9	1	2 (active)	18.4	12.3	24.4

Additional records:
target gene	reagent	two-siRNA summed score (-2 to +2)	mean protection from cisplatin (shift in death) (%)	protection from cisplatin (shift in death), siRNA C (%)	protection from cisplatin (shift in death), siRNA D (%)
MANBA	1	0	3.8	5.8	1.7
LOC440314	1	0	13.3	16.9	9.6
ABHD16B	1	-1	-8.7	2.1	-19.4
TM2D1	1	0	10.8	34.9	-13.4
LINC01547	1	0	-9.9	-15.9	-3.9
LINC01547	2	0	10.5	13.4	7.6
FOXN3	1	1	17.1	17.1	17
NMB	1	0	2.2	2	2.5
TMEM132E-DT	1	0	0.2	3.1	-2.8
ROBO2	1	0	2.7	10.6	-5.2
EFNA3	1	0	-2.7	4.8	-10.1
GNS	1	0	-10.6	-10.8	-10.3
LOC441099	1	0	-0.1	3.9	-4
LOC441786	1	1	11.2	14.2	8.3
PRR4	1	0	7.6	-4.8	20.1
AUP1	1	-1	-3.3	-5.6	-1.1
POLR2K	1	0	8.7	17.4	-0.1
SNTA1	1	0	7.4	-6.3	21.1
B4GALT7	1	0	-0.1	4.4	-4.5
BTC	1	-1	-8.4	8.4	-25.3
FAM237A	1	0	5.9	-4.7	16.6
P4HA2	1	-1	-20	-37.8	-2.2
TMEM143	1	0	-1.6	1.1	-4.3
LOC343474	1	0	16	18.6	13.3
PHAF1	1	0	6.2	17.7	-5.2
PSME1	1	0	0.5	-4.5	5.4
SHANK2	1	0	10	6.1	13.9
PIPOX	1	0	2.1	4.5	-0.2
PQBP1	1	0	7	14.4	-0.4
HDAC9	1	0	5.2	9.8	0.6
SYP	1	0	2.5	17.5	-12.5
EHD1	1	0	-20.2	-35.5	-4.9
LOC344382	1	0	2.5	7.4	-2.3
LOC400649	1	0	3.5	3	4.1
LOC284901	1	0	4.5	2.8	6.2
LOC401539	1	1	19.9	15	24.7
PCNA	1	0	-9	-20.8	2.8
MDM4	1	0	12.3	20.7	4
